Source: PMC6300665
These are yes or no findings as the source states them, for the method shown. Some entries that bind do so weakly or less than the wild type.

The chains behind the UniProt entries cited, without tags or fusion partners. Where a name states a change or a piece, a line headed by the entry shows the natural chain unless it says otherwise. Residues count along the entry.
UniProt P13597, residues 28-485: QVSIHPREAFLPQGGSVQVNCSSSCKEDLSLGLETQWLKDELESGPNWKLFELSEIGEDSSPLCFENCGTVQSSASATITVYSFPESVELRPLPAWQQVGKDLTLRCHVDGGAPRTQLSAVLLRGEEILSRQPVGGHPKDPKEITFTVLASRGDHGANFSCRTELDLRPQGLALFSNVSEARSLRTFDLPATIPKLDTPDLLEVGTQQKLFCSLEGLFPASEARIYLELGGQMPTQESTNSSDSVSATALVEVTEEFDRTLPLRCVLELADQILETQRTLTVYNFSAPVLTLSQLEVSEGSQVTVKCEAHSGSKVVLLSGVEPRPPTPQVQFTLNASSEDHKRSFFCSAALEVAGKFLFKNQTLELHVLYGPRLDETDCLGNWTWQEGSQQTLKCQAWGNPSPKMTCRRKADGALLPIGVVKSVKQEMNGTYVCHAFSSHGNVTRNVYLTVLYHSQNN
UniProt P05555: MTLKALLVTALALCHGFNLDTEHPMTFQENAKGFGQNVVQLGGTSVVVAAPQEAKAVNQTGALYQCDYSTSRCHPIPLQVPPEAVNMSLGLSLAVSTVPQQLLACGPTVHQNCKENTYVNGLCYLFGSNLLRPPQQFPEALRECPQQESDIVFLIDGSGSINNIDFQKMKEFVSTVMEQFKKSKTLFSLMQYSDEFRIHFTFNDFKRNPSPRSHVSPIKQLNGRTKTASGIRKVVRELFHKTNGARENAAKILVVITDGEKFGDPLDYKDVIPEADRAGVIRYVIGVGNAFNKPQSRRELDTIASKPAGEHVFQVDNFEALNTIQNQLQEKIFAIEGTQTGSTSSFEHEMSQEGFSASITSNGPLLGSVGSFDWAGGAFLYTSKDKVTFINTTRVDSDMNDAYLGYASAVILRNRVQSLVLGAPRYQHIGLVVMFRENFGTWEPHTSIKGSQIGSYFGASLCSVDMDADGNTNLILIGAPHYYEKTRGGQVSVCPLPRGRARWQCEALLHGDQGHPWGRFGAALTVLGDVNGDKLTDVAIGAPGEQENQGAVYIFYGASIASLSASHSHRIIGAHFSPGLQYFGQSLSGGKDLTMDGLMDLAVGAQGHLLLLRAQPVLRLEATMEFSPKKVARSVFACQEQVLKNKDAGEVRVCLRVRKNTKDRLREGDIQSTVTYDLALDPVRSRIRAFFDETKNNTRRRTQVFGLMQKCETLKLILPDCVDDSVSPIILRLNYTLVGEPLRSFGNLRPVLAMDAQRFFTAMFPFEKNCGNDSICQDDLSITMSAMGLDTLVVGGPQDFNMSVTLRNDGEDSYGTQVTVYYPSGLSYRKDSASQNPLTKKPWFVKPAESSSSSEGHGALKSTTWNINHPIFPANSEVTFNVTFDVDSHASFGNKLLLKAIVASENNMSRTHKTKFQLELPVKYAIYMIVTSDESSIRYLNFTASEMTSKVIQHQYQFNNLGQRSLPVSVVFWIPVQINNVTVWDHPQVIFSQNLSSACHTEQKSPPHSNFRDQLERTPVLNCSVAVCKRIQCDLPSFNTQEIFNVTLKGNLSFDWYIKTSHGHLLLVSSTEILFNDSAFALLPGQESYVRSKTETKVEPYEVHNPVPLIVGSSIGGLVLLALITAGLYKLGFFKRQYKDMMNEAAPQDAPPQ

Molecular target: ICAM-1 (UniProt P13597)
Test: cell adhesion assay; macrophages on ICAM-1 coated substrates, with Ca2+Mg2+, Mn2+, LA1 or LA1 + neutralizing anti-CD11b antibody; only the target purified

## integrin CD11b/CD18 (from UniProt P05555 17-1153; P11835 24-771) (complex)
  binding: binds
